Data on 1 molecule can be found in patent US20230116446A1.

The target of the assay is T1, human Claudin 18 splice variant 2 (hCLDN18.2) (human) (UniProt P56856).
T1 sequence (looked up): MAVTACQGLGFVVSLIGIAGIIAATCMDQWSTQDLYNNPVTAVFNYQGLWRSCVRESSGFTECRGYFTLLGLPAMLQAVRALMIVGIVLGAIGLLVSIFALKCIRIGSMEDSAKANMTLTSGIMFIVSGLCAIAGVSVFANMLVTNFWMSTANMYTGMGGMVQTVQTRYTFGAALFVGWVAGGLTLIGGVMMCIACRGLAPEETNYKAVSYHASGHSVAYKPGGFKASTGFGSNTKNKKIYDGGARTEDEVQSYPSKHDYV
As to the kind of experiment: Flow cytometry on Expi293 cells stably expressing human CLDN18.2 (EF1a::huCLDN18.2); detection with APC-conjugated anti-human IgG F(ab')2; gMFI against mAb (nM). (In flow cytometry, cells or beads pass a laser one at a time.)

These are yes or no findings as the source states them, for the method shown. Some binding calls cover weakened binding; strength is not graded here.

B1: parental anti-hCLDN18.2 59F9E1 IgG1 antibody (antibody, V domains shown)
VH: QVQLVQSGAEVKKPGSSVKVSCKASGYTLTGYWIEWLRQRPGQGLEWMGEILLGSGSIKYNVKFKDRVTITADESTSTAYMELSSLRSEDTAVYYCARKGLRGNSFDYWGQGTLVTVSS
VL: DIVMTQSPSSLTVSLGEKATISCKSSQSLLNSGNQKSYLTWYQQKPGQPPKRLIYWASTRESGVPDRFSGSGSGTDFTLTISSLQAEDLAVYYCQNDYYYPFTFGQGTKVEIKR
On to B1, for which the binding result is recorded as “binds”.
